Source: patent US8703917B2, “Epidermal growth factor receptor variants and pharmaceutical compositions thereof” (Shanghai Cancer Institute, priority 2010, dated 2014)
Some results were stated once for a whole list of compounds, not compound by compound. At least one compound was matched to its structure with a doubt left.

Test system: U87MG EGFRvA
Test: Cell growth suppression assay (CCK-8) using small molecular inhibitors against EGFR
Assay type: cell-based, human
Procedure: Methods: cells in the log-phase growth were plated in 96-well plates with 3000 cells/well. […] The medium were replaced with fresh medium containing 10% CCK-8 reagents and incubated for another 2 h. The OD450 value was then measured.

Structure (SMILES): COc1cc2ncnc(Nc3cccc(Cl)c3)c2cc1OC [AG1478]
- IC50 on cells with EGFRvA expression relative to cells with EGFRwt expression: over 3 fold
